Reference: patent publication US20140194353A1, “COMPOSITIONS AND METHODS FOR THE TREATMENT OF NERVOUS DISORDERS ASSOCIATED WITH DIABETES” (Joslin Diabetes Center, Inc., priority 2010, published 2014)
At least one structure is not confirmed: it was looked up by name or label, or the drawing left a doubt.

Tested on: cultured neurons
Assay: Pharmacological inhibition of insulin signaling pathways, cholesterol synthetic gene expression
Format: cell-based, mouse
Settings: for insulin's effect on Hmgcr induction: inhibitor given prior to insulin stimulation

Structure (SMILES) | insulin's effect on Hmgcr induction | SB216763-induced increase in expression of cholesterol synthetic genes (pretreatment with rapamycin (0.5 μM))
O=c1cc(N2CCOCC2)oc2c(-c3ccccc3)cccc12 [LY294002] | partially suppressed | –
CO[C@H]1C[C@@H]2CC[C@@H](C)[C@@](O)(O2)C(=O)C(=O)N2CCCC[C@H]2C(=O)O[C@H]([C@H](C)C[C@@H]2CC[C@@H](O)[C@H](OC)C2)CC(=O)[C@H](C)/C=C(\C)[C@@H](O)[C@@H](OC)C(=O)[C@H](C)C[C@H](C)/C=C/C=C/C=C/1C [rapamycin] | partially suppressed | inhibited
